Binding data for one substance are collected here from paper PMC5249188.

By UniProt entry, the sequences of proteins in these tests, tags left out.
UniProt Q62406: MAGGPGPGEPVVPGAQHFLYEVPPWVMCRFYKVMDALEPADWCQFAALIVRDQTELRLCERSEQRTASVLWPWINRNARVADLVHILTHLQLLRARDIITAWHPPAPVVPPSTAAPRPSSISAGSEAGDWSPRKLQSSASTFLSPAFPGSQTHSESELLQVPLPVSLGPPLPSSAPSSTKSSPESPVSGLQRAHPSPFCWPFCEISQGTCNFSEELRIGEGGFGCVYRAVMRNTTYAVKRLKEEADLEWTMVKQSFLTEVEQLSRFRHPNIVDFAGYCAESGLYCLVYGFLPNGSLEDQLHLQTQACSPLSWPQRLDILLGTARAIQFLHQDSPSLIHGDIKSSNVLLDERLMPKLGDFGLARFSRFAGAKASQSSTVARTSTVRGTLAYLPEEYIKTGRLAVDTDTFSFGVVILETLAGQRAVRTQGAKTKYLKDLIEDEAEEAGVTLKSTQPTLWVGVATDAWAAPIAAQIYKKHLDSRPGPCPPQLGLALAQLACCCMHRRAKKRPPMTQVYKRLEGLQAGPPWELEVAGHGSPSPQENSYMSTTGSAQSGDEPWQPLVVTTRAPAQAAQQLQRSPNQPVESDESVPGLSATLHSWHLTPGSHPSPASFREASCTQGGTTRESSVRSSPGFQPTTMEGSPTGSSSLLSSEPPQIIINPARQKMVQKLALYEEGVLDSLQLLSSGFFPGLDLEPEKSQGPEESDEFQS

The target in test [1] is T1, tumor necrosis factor receptor associated factor-6 (mouse (endogenous in liver)) (UniProt P70196).
T1 sequence: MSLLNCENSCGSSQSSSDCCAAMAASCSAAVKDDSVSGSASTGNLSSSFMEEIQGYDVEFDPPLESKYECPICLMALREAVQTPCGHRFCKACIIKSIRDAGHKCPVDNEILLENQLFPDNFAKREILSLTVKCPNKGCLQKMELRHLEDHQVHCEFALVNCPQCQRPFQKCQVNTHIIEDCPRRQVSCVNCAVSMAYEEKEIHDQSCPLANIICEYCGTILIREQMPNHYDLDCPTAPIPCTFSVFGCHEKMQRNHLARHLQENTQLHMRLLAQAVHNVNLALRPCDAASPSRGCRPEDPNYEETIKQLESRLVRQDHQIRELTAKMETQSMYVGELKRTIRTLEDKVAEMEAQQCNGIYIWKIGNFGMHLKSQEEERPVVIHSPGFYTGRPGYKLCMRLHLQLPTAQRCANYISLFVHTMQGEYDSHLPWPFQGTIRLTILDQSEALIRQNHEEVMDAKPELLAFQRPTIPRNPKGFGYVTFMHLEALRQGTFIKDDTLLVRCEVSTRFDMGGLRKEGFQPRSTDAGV
Kind of test: condition: only saline-injected mice (without LPS stimulation); co-IP; liver tissue lysates of saline-injected (no LPS) NS5A-transgenic and non-transgenic mice in NET-N buffer; anti-TRAF6 antibody and protein A-Sepharose overnight; immunoblot with anti-IRAK1 and anti-TRAF6.

The target of test [2] is T1, tumor necrosis factor receptor associated factor-6 (mouse (endogenous in liver)). Kind of test: co-IP; liver tissue lysates of LPS-injected (1 ug/g body weight, 6 h) non-transgenic mice in NET-N buffer (20 mM Tris-HCl pH 8.0, 100 mM NaCl, 1 mM EDTA, 0.5% NP-40); anti-TRAF6 antibody and protein A-Sepharose overnight; immunoblot with anti-IRAK1 and anti-TRAF6.
Test [3] has the same target. Kind of test: co-IP; liver tissue lysates of LPS-injected (1 ug/g body weight, 6 h) NS5A-transgenic mice in NET-N buffer; anti-TRAF6 antibody and protein A-Sepharose overnight; immunoblot with anti-IRAK1 and anti-TRAF6.

Results are given in words; binding and its absence hold for the method and conditions named. Binding seen in cells or lysates may run through a third protein. Some binding calls cover weakened binding; strength is not graded here.

Regarding “interleukin-1 receptor-associated kinase-1 (from UniProt Q62406 1-710)”, the figures for the binding result in test [1], in test [2] and in test [3] were “no binding”, “binds” and “binds weakly”, respectively.
